Patent US20260232827A1 (Zymeworks BC Inc., priority 2023, published 2026)

Assay: general procedure: solution-phase peptide synthesis; HATU
Conditions: for conjugation yield: conjugation step

Substance: 2-((2-(((S)-1-((2-(((S)-4-ethyl-8-fluoro-4-hydroxy-3,14-dioxo-3,4,12,14-tetrahydro-1H-pyrano[3′,4′:6,7]indolizino[1,2-b]quinolin-9-yl)amino)-2-oxoethyl)amino)-1-oxo-3-phenylpropan-2-yl)amino)-2-oxoethyl)amino)-2-oxoethan-1-aminium
- step yield (coupling step): 88% yield

Substance: (9H-fluoren-9-yl)methyl ((7S)-1-((3-azabicyclo[3.1.1]heptan-6-yl)oxy)-7-benzyl-3,6,9,12-tetraoxo-2,5,8,11-tetraazatridecan-13-yl)carbamate
- step yield (late stage modification step): 46% yield

Substance: (9H-fluoren-9-yl)methyl (S)-(9-benzyl-1-(3-fluoroazetidin-3-yl)-5,8,11,14-tetraoxo-2-oxa-4,7,10,13-tetraazapentadecan-15-yl)carbamate
- step yield (late stage modification step): 54% yield

Substance: (9H-fluoren-9-yl)methyl (S)-(12-benzyl-1-(4-nitrophenoxy)-1,8,11,14,17-pentaoxo-2,5-dioxa-7,10,13,16-tetraazaoctadecan-18-yl)carbamate
- step yield (late stage modification step, from Compound 4.6): 53% yield from Compound 4.6%

Substance: (S)-2-(1-(2,5-dioxo-2,5-dihydro-1H-pyrrol-1-yl)-12,15-dioxo-3,6,9-trioxa-13,16-diazaoctadecan-18-amido)-N-(1-((S)-4-ethyl-8-fluoro-4-hydroxy-9-methyl-3,14-dioxo-3,4,12,14-tetrahydro-1H-pyrano[3′,4′:6,7]indolizino[1,2-b]quinolin-11-yl)-3,10-dioxo-7-oxa-2,4,9-triazaundecan-11-yl)-3-phenylpropana
- conjugation yield: 26% yield

Substance: (S)-2-(1-(2,5-dioxo-2,5-dihydro-1H-pyrrol-1-yl)-12,15-dioxo-3,6,9-trioxa-13,16-diazaoctadecan-18-amido)-N-(2-((4-(4-(((S)-4-ethyl-8-fluoro-4-hydroxy-9-methyl-3,14-dioxo-3,4,12,14-tetrahydro-1H-pyrano[3′,4′:6,7]indolizino[1,2-b]quinolin-11-yl)methyl)piperazin-1-yl)phenyl)amino)-2-oxoethyl)-3-ph
- conjugation yield: 20% yield

Substance: (S)-16-amino-10-benzyl-6,9,12,15-tetraoxo-3-oxa-5,8,11,14-tetraazahexadecyl (((S)-4-ethyl-8-fluoro-4-hydroxy-9-methyl-3,14-dioxo-3,4,12,14-tetrahydro-1H-pyrano[3′,4′:6,7]indolizino[1,2-b]quinolin-11-yl)methyl)carbamate
- conjugation yield (TFA salt): 39% yield

Substance: tert-butyl (2-((2-(((S)-1-((2-((4-(4-(((S)-4-ethyl-8-fluoro-4-hydroxy-9-methyl-3,14-dioxo-3,4,12,14-tetrahydro-1H-pyrano[3′,4′:6,7]indolizino[1,2-b]quinolin-11-yl)methyl)piperazin-1-yl)phenyl)amino)-2-oxoethyl)amino)-1-oxo-3-phenylpropan-2-yl)amino)-2-oxoethyl)amino)-2-oxoethyl)carbamate
- conjugation yield: 62% yield

Substance: tert-butyl (2-((2-(((S)-1-((2-((4-((4-(((S)-4-ethyl-8-fluoro-4-hydroxy-9-methyl-3,14-dioxo-3,4,12,14-tetrahydro-1H-pyrano[3′,4′:6,7]indolizino[1,2-b]quinolin-11-yl)methyl)piperazin-1-yl)sulfonyl)phenyl)amino)-2-oxoethyl)amino)-1-oxo-3-phenylpropan-2-yl)amino)-2-oxoethyl)amino)-2-oxoethyl)carbam
- conjugation yield: 42% yield

Substance: tert-butyl (2-((2-(((S)-1-((2-(((S)-4-ethyl-8-fluoro-4-hydroxy-3,14-dioxo-3,4,12,14-tetrahydro-1H-pyrano[3′,4′:6,7]indolizino[1,2-b]quinolin-9-yl)amino)-2-oxoethyl)amino)-1-oxo-3-phenylpropan-2-yl)amino)-2-oxoethyl)amino)-2-oxoethyl)carbamate
- conjugation yield: 17% yield

Substance: tert-butyl (((S)-9-(2-((S)-2-(2-(2-aminoacetamido)acetamido)-3-phenylpropanamido)acetamido)-4-ethyl-8-fluoro-4-hydroxy-3,14-dioxo-3,4,12,14-tetrahydro-1H-pyrano[3′,4′:6,7]indolizino[1,2-b]quinolin-11-yl)methyl)carbamate
- step yield (coupling step, TFA salt): 64% yield
